Primary screen of a compound library

Chains of the proteins cited; added tags and fusions are not shown. Residues count along the entry.
UniProt P9WFT3, whole entry: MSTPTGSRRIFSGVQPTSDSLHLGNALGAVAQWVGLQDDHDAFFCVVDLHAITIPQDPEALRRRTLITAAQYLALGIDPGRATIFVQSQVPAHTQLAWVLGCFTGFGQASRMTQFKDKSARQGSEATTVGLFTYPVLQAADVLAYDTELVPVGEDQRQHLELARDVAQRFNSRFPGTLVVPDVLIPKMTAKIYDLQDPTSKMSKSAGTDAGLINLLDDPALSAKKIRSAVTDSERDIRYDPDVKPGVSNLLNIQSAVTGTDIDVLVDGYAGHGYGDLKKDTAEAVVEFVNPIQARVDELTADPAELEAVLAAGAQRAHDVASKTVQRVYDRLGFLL
UniProt P9WPC5, whole entry: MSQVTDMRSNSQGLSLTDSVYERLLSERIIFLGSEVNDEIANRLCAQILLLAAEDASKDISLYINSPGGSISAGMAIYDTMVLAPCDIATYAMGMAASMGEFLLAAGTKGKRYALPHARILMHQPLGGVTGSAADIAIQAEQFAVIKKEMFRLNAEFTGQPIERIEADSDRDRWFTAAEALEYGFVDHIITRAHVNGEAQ
UniProt P9WPC3, whole entry partner: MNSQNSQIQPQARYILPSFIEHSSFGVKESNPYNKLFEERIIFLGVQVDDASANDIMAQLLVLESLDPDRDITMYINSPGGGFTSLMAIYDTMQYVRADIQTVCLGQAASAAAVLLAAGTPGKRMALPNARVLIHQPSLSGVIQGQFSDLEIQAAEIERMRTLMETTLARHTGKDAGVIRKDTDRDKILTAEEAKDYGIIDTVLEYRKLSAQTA
UniProt Q8IDJ8, 1-583: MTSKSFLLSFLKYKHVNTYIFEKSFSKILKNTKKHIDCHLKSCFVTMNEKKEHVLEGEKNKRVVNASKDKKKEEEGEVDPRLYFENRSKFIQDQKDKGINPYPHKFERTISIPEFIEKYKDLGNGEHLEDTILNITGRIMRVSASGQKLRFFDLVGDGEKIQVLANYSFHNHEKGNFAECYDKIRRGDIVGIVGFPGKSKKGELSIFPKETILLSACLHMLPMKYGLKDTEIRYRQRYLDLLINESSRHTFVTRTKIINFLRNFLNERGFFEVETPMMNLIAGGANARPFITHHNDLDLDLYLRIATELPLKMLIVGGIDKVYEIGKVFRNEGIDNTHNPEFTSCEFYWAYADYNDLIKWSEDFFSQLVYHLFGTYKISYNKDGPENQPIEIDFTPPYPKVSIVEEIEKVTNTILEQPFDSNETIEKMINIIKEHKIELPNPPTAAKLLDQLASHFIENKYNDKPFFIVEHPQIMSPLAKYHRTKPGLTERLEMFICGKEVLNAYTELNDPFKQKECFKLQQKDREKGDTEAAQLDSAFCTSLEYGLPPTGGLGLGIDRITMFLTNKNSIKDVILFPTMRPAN
UniProt P9WNZ1, whole entry: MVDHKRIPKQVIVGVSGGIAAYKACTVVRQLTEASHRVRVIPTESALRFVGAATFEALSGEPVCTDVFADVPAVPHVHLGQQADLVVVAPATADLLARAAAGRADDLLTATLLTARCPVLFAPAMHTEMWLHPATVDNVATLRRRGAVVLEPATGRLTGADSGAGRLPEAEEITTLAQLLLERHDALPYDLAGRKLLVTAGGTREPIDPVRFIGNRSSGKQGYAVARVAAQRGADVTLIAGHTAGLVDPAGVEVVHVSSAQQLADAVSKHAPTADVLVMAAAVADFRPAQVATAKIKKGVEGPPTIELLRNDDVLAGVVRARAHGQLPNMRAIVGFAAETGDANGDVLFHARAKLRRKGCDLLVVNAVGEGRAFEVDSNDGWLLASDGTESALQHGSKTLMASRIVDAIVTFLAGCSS

From ChEMBL document CHEMBL3988442, “University of Dundee, Small-Polar-MMV Screening Library” (2021).

MtTrpRS: 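Enzyme assay of tryptophanyl-tRNA synthetase; the read-out is not stated. Target: Tryptophan-tRNA ligase, Mycobacterium tuberculosis (UniProt P9WFT3). Concentration: 10 µM. Direction is not recorded; retested compounds ran higher, which suggests that high means inhibition. About 65,000 compounds were tested under these conditions; 0.098% (about 64) showed 50% or more at least once.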
ClpP1P2: 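ClpP1P2, Mycobacterium tuberculosis (UniProt P9WPC5 and UniProt P9WPC3). Protease assay of ClpP1P2, read by the AMC dye that it sets free. Concentration: 50 µM. Direction is inferred from only a few compounds that gave an IC50; most scored high, so higher reads as stronger inhibition. Most other retested compounds had strongly negative values. Of about 69,000 compounds tested this way, about 10 (0.015%) reached 50% or more in at least one test.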
Leishmania in macrophages: 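Cell assay of Leishmania donovani living inside macrophages; the read-out is not stated. Tested at 30 µM. The record gives no direction; compounds that gave an IC50 in retests scored well above the rest, so higher reads as stronger inhibition. About 69,000 compounds were tested under these conditions; 1.5% (about 1,000) showed 50% or more at least once.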
PfKRS1: 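Lysine-tRNA ligase, Plasmodium falciparum 3D7 (UniProt Q8IDJ8). Enzyme assay of the cytosolic lysyl-tRNA synthetase in 384-well plates, read by luminescence. Compounds at 30 µM. Higher reads as stronger inhibition, judged from the few compounds that gave an IC50. Size under these conditions: about 69,000 compounds, about 49 of them at 50% or above in at least one test.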
CoaBC: 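Coenzyme A biosynthesis protein CoaBC, Mycobacterium tuberculosis (UniProt P9WNZ1). Enzyme assay of CoaBC with a phosphate dye (Biomol Green) read at 650 nm. Tested at 30 µM. Higher reads as stronger inhibition, judged from the few compounds that gave an IC50. Most strong results did not repeat in a second test. Size under these conditions: about 67,000 compounds, about 40 of them at 50% or above in at least one test.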

Values are the deposited “Percent Effect”, in %.
How 0% and 100% were set is not recorded. Most values in the screen are low, and negative values occur.
Compounds were drawn at random from those tested, without regard to their results.
Two or more numbers in one place are separate tests of the same structure; such repeats can differ widely.
A dash means the value is not listed here; it may have been measured.

Compound	MtTrpRS	ClpP1P2	Leishmania in macrophages	PfKRS1	CoaBC
CN(CCc1ccccc1)c1cnn(Cc2ccccn2)c(=O)c1	-4.326	-5.898	23.84	1.633	9.259
O=C(O)C(F)(F)F.O=C(O)C(F)(F)F.[H][C@@]12C[C@@H](C(=O)NC)N(C(C)C)[C@]1([H])CN(Cc1c(C)noc1C)C2	-	-	37.57	-	-
O=S(=O)(c1ccc(-c2nc3c([nH]2)CCNC3)cc1)N1CCCC1	4.321	-0.5767	9.723	4.159	1.961
CSCC(CCO)NC(=O)Nc1ccc(C)cc1C (configuration not stated)	5.846	-11.3	-38.05	4.366	1.899
CCCNC(=O)C(C)Oc1ccccc1 (configuration not stated)	-1.385	-4.2	24.69	-2.57	-14.4
O=C(NCCNc1ncccn1)c1cnc(-c2ccccc2)nc1	4.661	11.74	3.758	0.3671	6.009
Cn1cccc1C(=O)NCc1cn2c(n1)CN(c1ncccn1)CC2	0.3791	-2.131	13.59	-0.8446	3.585
CC(C)c1nc2n(n1)CC(NCC(=O)NCCC1=CCCCC1)CC2 (configuration not stated)	3.577	-2.54	8.019	0.4677	14.91
CN(CC(N)=O)C(=O)c1cnc(-c2ccc(Cl)s2)s1	-1.48	-37.78	19.23	8.028	6.329
C1CCC(CN2Cc3nnn(CC4CC4)c3C(COCC3CC3)C2)C1.O=C(O)C(F)(F)F (configuration not stated)	-	-	36.62	-	-
NC(=O)c1cn[nH]c1C1CCCN1C(=O)COc1ccccc1 (configuration not stated)	-6.997	-6.676	17.94	0.8427	-4.988
O=C(Cc1n[nH]c(-c2cncc(Br)c2)n1)NCc1cccnc1	-5.369	-0.1065	5.579	3.066	4.665
CC(C)n1nc(CNc2ncccn2)c2c1CN(S(C)(=O)=O)CC2	4	3.796	8.191	3.303	3.623
CC(=O)c1ccc(N2CCCC(CO)(CCOc3ccccc3)C2)nc1 (configuration not stated)	0.9114	-0.04339	-5.579	0.5691	5.455
OCc1cc2ccccc2nc1NCC1CCN(CC(F)(F)F)C1 (configuration not stated)	6.789	-12.72	-17.18	0.8261	4.218
CCCN1CCCn2nc(CNC(=O)CCOC)cc2C1	-1.499	-7.999	4.954	1.406	0.4274
CCc1ccccc1NC(=O)c1cccc(N(C)S(C)(=O)=O)c1C	3.097	-7.431	29.22	0.4928	4.377
CC(C(=O)NCc1ccnc(N2CCCC2)c1)n1cccn1 (configuration not stated)	1.569	-12.62	31.33	-1.908	5.957
COc1ccccc1CN(C)c1nc2c(cnn2C)c(=O)[nH]1	-1.971	12	49.05	3.629	10.02
Cc1ncnc2c1CCN(C(=O)c1ccoc1)CC2	2.67	-8.28	27.48	6.96	3.175 and 22.2
CCN(CC1CCCN(CCc2cccc(OC)c2)C1)C(=O)CCSC (configuration not stated)	-0.722	-9.038	15.79	2.831	-23.57
Cc1noc(C(C)Nc2ccc3oc(C)nc3c2)n1 (configuration not stated)	4.459	5.643	6.223	38.43	0.8032
Cc1c(C(C)Nc2ncnc3sccc23)cnn1C (configuration not stated)	6.409	4.424	45.58	3.353	0
O=C(NCCc1ccccc1)N1CC[C@@H]2CNS(=O)(=O)[C@@H]2CC1	2.044	-11.3	-	1.173	4.863
CCN1CC(CN2CCOCC2)Oc2ncccc2C1=O (configuration not stated)	-	-5.423	15.54	1.681	1.35
c1ccc(Cn2cccn2)c(CNCc2cnc(N3CCCC3)nc2)c1	-6.662	3.82	54.07	10.37	3.165
O=C(CCn1cccn1)N1CCN(CC(F)F)CC1	3.79	14.15	34.45	-1.794	2.698
CC(NC(N)=O)C(=O)N1CCCN(Cc2nccn2C(C)C)CC1 (configuration not stated)	-1.267	3.829	0.9501	1.863	7.05
CCS(=O)(=O)N1Cc2c(Cn3ccnc3)nn(C(C)C)c2C1	18.27	-1.93	-1.342	3.462	14.58
COc1ccc(-n2cc(CCO)cn2)cc1C	-0.6571	6.632	7.625	19.3	49.56 and 7.407
Cc1ccc(OCCn2cnc3oc(C)c(C(=O)O)c3c2=O)cc1	2.585	-6.893	-9.017	0.8405	-2.893
O=C(c1cscn1)N1CCc2ncc(CN3CCOCC3)n2CC1	-1.407	1.344	-18.53	1.097	3.25
[H][C@]12CC[C@]([H])(CN(C(=O)c3ccc4[nH]cnc4c3)C1)N(CC=C(C)C)C2	-	-	10.07	-	-
CN(C)Cc1ccccc1CN(C)C(=O)c1ccoc1	4.854	-7.196	46.02	-1.625	-1.446
Cc1cc(-c2cnc(C(C)C)nc2CN(C)C(=O)c2ccccn2)on1	-6.745	-10.23	10.54	1.109	0.3708
CN(Cc1ccccc1)C(=O)CCN1C[C@H](C2CC2)[C@@H](N(C)C)C1	-2.506	-4.924	-5.653	5.612	4.938
COC1(CNC(=O)NCc2ccccc2)CCSC1 (configuration not stated)	2.288	-11.24	-5.345	2	1.272
Cc1nc(SCC(=O)Nc2ccc(C(N)=O)cc2)c(C#N)c(C)c1C	12.21	8.548	-5.079	-3.047	2.767
[H][C@]12CC[C@]([H])(CN(S(=O)(=O)N(C)C)C1)N(Cc1ccc3nsnc3c1)C2	-	-	26.98	-	-
CN(C)S(=O)(=O)N1CCN(CC2CCOc3ccccc3C2)CC1 (configuration not stated)	-1.044	-15.32	-17.24	4.768	5.71
Cc1ccc(C2(CN(C)Cc3snnc3C)CCNCC2)nc1	3.769	6.373	37.33	-0.3415	-25.69
COCCn1cnc2c(F)cc(Br)cc2c1=O	0.5161	5.608	8.054	7.533	3.704
COCC1CN(C(=O)[C@H]2CCCO2)Cc2nnn(CC3CC3)c21 (some centres not stated)	1.066	-5.167	15.99	-2.887	-
O=C(c1ccc(-n2cnnc2)cc1)N1CCC(Nc2cccnn2)CC1	-6.816	-3.619	0.9965	-0.3166	1.161
Cc1cccc(C)c1Nc1noc2c1CN(C(=O)c1ccnn1C)CC2	30.35	-10.09	-11.02	0.1606	-0.2421